Data on 13 molecules can be found in PubChem BioAssay AID1487 (National Center for Advancing Translational Sciences (NCATS), 2009).

The nature of this assay: qHTS Assay for Modulators of Lamin A Splicing. The following applies: HeLa LMNA splicing GFP/RFP minigene ratio, 48 h. In outline: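 S3 HeLa cells stably expressing lamin A-EGFP splicing minigene plus DsRed2, 600 cells/well, 48 h compound exposure at 37C. Laser-scanning cytometry; analysed as GFP (500-530 nm)/RFP (575-640 nm) total intensity ratio; 0.5% DMSO vehicle.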
Background: Quantitative high-throughput screening tests each substance at several concentrations.

[1] abbreviates: measured here: GFP splicing reporter channel.
Where [2] appears, read: measured here: RFP viability control channel.

Some of the results follow. These are further read-outs of the screen, such as a control signal, another cell line or another target. No call is given for them. Most of these compounds were active or inconclusive in the main read-out, so they are no random draw. Words in brackets tell the shape of the fitted curve; partial curves, single points and poor fits give uncertain potencies.

On to `Cc1onc(-c2c(F)cccc2Cl)c1C(=O)Nc1cccc2nsnc12`, for which the AC50 under setting [1] was 2.51 µM [rising, full curve, poor fit] and the AC50 under setting [2] was 8.91 µM [rising, partial curve].

For the molecule `C=CCN(CC=C)S(=O)(=O)c1ccc(C(=O)Nc2nc3c(s2)CCc2ccccc2-3)cc1`, the AC50 under setting [1] is 12.6 µM [rising, partial curve, poor fit] and the AC50 under setting [2] is 11.2 µM [rising, partial curve, poor fit].

With `O=C(c1ccc(COc2c(F)c(F)cc(F)c2F)o1)N1CCN(c2ccccc2)CC1`, the AC50 under setting [2] is 11.2 µM [rising, partial curve, poor fit].

As for `Cn1nnnc1SCCCNCc1cc(Br)ccc1OCc1ccccc1F`, the AC50 under setting [1] was 8.91 µM [falling, partial curve, poor fit].

Take `CCOC(=O)c1cc(-c2ccccc2)n(CC(=O)Nc2ccccc2OCC)c1C`: the AC50 runs as follows: under setting [1], 0.158 µM [falling, full curve, poor fit]; under setting [2], 0.158 µM [falling, full curve, poor fit].

On to `CCCCCCC(C)NC(=S)Nc1cc(S(=O)(=O)N(C)C)ccc1C` (configuration not stated), for which the AC50 reads like this: under setting [1], 12.6 µM [rising, partial curve]; under setting [2], 20 µM [rising, single point].

`Cc1ccccc1-c1noc(-c2ccccc2C(=O)N2CCCC2)n1`: the AC50 was 0.00447 µM [rising, full curve, poor fit] under setting [1] and 20 µM [rising, partial curve, poor fit] under setting [2].

`CCCCNc1nc(N)nc(-c2cc(Cl)ccc2O)n1`: the AC50 is, setting by setting: under setting [1], 14.1 µM [falling, single point]; under setting [2], 15.8 µM [falling, single point].

For the molecule `Cc1cc(C)c(C(=O)Nc2ccc(Br)c(C(F)(F)F)c2)c(C)c1`, the AC50 is, setting by setting: under setting [1], 17.8 µM [rising, partial curve]; under setting [2], 0.00708 µM [rising, full curve, poor fit].

As to `Cc1ccc(NC(=O)Cn2cc(S(=O)(=O)c3ccc(C)cc3)c(=O)c3cc(F)ccc32)cc1`, the AC50 is 3.98 µM [rising, single point] under setting [1] and 5.62 µM [rising, single point] under setting [2].

With `COC(=O)c1nn(-c2ccc(C)cc2)c2nnc(Cc3ccccc3)c(=O)n12`, the AC50 under setting [1] is 5.01 µM [falling, partial curve] and the AC50 under setting [2] was 3.98 µM [falling, partial curve].

For `COc1ccc(-n2c(CNC(=O)c3cccs3)n[nH]c2=S)cc1`, the AC50 under setting [1] is 2.51 µM [falling, full curve].

Turning to `CCOC(=O)c1ccccc1NC(=O)C=C(C)C`, the AC50 under setting [2] is 0.00355 µM [rising, full curve, poor fit].

A word on the AC50: it is the midpoint of the concentration-response curve, whichever way the signal moves.
